Assay results reported in patent US20220304349A1, “Steviol Glycoside Compositions for Oral Ingestion or Use” (CARGILL, Incorporated, priority 2016, published 2022).
Some results were stated once for a whole list of compounds, not compound by compound.

Experiment: Instantaneous solubility: vigorous mixing with deionized water for 10 minutes at room temperature
Type: physicochemical
Conditions: even at low concentrations
Procedure: The composition can optionally be expressed in terms of the concentration of one or more steviol glycoside(s). […] Clear solutions without precipitates are considered soluble. Unless indicated otherwise herein, the term “solubility” refers to “equilibrium solubility.”
Instantaneous solubility is determined by mixing steviol glycoisde with deionized water vigorously for 10 minutes at room temperature. […] Clear solutions without precipitates are considered soluble.

Row | SMILES | effect of presence on the solubility of Reb D and Reb M in a composition
1 | C=C1C[C@@]23CCC4[C@](C)(C(=O)OC5OC(CO)C(O)C(OC6OC(CO)C(O)C(O)C6O)C5OC5OC(CO)C(O)C(O)C5O)CCC[C@@]4(C)[C@@H]2CC[C@]1(OC1OC(COC2OC(CO)C(O)C(O)C2O)C(O)C(OC2OC(CO)C(O)C(O)C2O)C1OC1OC(CO)C(O)C(O)C1O)C3 (stereo partly shown) [SG102] | significant effect on the solubility of Reb D and Reb M
2 | C=C1C[C@@]23CCC4[C@](C)(C(=O)OC5OC(CO)C(O)C(O)C5OC5OC(CO)C(O)C(O)C5O)CCC[C@@]4(C)[C@@H]2CC[C@]1(OC1OC(COC2OC(CO)C(O)C(O)C2O)C(O)C(OC2OC(CO)C(O)C(O)C2O)C1OC1OC(CO)C(O)C(O)C1O)C3 (stereo partly shown) [SG101] | significant effect on the solubility of Reb D and Reb M
3 | C=C1C[C@@]23CCC4[C@](C)(C(=O)OC5OC(CO)C(O)C(O)C5OC5OC(CO)C(O)C(O)C5O)CCC[C@@]4(C)[C@@H]2CC[C@]1(OC1OC(CO)C(O)C(OC2OC(COC4OC(CO)C(O)C(O)C4O)C(O)C(O)C2O)C1OC1OC(CO)C(O)C(O)C1O)C3 (stereo partly shown) [SG103] | significant effect on the solubility of Reb D and Reb M
4 | C=C1C[C@@]23CCC4[C@](C)(C(=O)OC5OC(CO)C(O)C(OC6OC(CO)C(O)C(O)C6O)C5OC5OC(CO)C(O)C(O)C5O)CCC[C@@]4(C)[C@@H]2CC[C@]1(OC1OC(CO)C(O)C(OC2OC(COC4OC(CO)C(O)C(O)C4O)C(O)C(O)C2O)C1OC1OC(CO)C(O)C(O)C1O)C3 (stereo partly shown) [SG104] | significant effect on the solubility of Reb D and Reb M
